From PubChem BioAssay AID306 (DTP/NCI, 2004)
The list shows only some results of the screen, not a fair sample: it covers a few groups of compounds. Not every dose and run of a compound is shown. T/C gives the treated animals as a percentage of the vehicle group. Where survival is the endpoint, the PubChem record calls one and a half times the control and up active, and a quarter to a half above the control has no call in these data; cut-offs in other NCI protocols can differ. Some entries show no survivor count and are marked so; the dose need not have been tolerated. Schedules are NCI's codes, taken here to give the interval after Q, in days (D) or hours (H), and the number of doses after X. Some schedules carry Z or #; the key to these is not given. Signs of the kind (2×) stand for listed records that agree. Some entries were tested several times; their values stand side by side, smallest first.

Tested on: BDF1 mice, L1210 Methyl-GAG-resistant leukemia, survival T/C
Experiment: NCI In Vivo Anticancer Drug Screen. Data for tumor model L1210 Leukemia resistant to Methyl-GAG; NSC 32946 (subcutaneous) in B6D2F1 (BDF1) mice
Conditions: T/C endpoint: mean survival time, schedule: Q01DX Z (ip), higher T/C = longer survival
Method: The antitumor activity of compounds was measured in mice bearing transplantable tumors. Survival or tumor size were measured and the results are expressed as the measurement made in the treated group (T) divided by the measurement made in the vehicle treated control group (C). The tumor model used in this assay is L1210 Leukemia resistant to Methyl-GAG; NSC 32946 (subcutaneous) in B6D2F1 (BDF1) mice

[1] = dose: 1.25 mg/kg/injection, vehicle: carboxymethylcellulose (CMC)
[2] = dose: 2.5 mg/kg/injection, vehicle: carboxymethylcellulose (CMC)
[3] = dose: 5.0 mg/kg/injection, vehicle: carboxymethylcellulose (CMC)
[4] = dose: 10.0 mg/kg/injection, vehicle: carboxymethylcellulose (CMC)

For `ClCCN(CCCl)Cc1nc2ccccc2[nH]1`, which T/C [1] is on record?
The T/C was 90 % of control [survivor count not shown].

And the T/C [2]?
Its T/C is 90 % of control [survivor count not shown].

What about the T/C [3] of the same molecule?
Its T/C is 92 % of control [survivor count not shown].

What about the T/C [4] of the same molecule?
The T/C was 97 % of control [survivor count not shown].

And the T/C (dose: 20.0 mg/kg/injection, vehicle: carboxymethylcellulose (CMC))?
The T/C was 109 % of control [survivor count not shown].

And the T/C (dose: 40.0 mg/kg/injection, vehicle: carboxymethylcellulose (CMC))?
The T/C was 106 % of control [survivor count not shown].

Which T/C (dose: 3.12 mg/kg/injection, vehicle: carboxymethylcellulose (CMC)) does the source give for `ClCCNCCCl` here?
Its T/C is 101 % of control [survivor count not shown].

And the T/C (dose: 6.25 mg/kg/injection, vehicle: carboxymethylcellulose (CMC))?
The T/C was 111 % of control [survivor count not shown].

What about the T/C (dose: 12.5 mg/kg/injection, vehicle: carboxymethylcellulose (CMC)) of the same molecule?
Its T/C is 103 % of control [survivor count not shown].

What about the T/C (dose: 25.0 mg/kg/injection, vehicle: carboxymethylcellulose (CMC)) of the same molecule?
The T/C was 111 % of control [survivor count not shown].

What about the T/C (dose: 50.0 mg/kg/injection, vehicle: carboxymethylcellulose (CMC)) of the same molecule?
Its T/C is 97 % of control [survivor count not shown].

What does the source list for `CC(C(=O)O)N(CCCl)CCCl` (stereo not drawn)?
T/C [1]: 89 % of control [survivor count not shown]; T/C [2]: 92 % of control [survivor count not shown]; T/C [3]: 111 % of control [survivor count not shown]; T/C [4]: 91 [survivor count not shown] and 93 % of control [survivor count not shown]

`NC(Cc1cccc(N(CCCl)CCCl)c1)C(=O)O` (stereo not drawn) was tested. Which T/C (dose: 0.31 mg/kg/injection, vehicle: carboxymethylcellulose (CMC)) did it give?
The T/C was 95 % of control [survivor count not shown].

And the T/C (dose: 0.63 mg/kg/injection, vehicle: carboxymethylcellulose (CMC))?
The T/C was 100 % of control [survivor count not shown].

And the T/C [1]?
The T/C was 103 % of control [survivor count not shown] (2×).

What about the T/C [2] of the same molecule?
The T/C was 93 [survivor count not shown], 124 [survivor count not shown], 126 % of control [survivor count not shown].

And the T/C [3]?
The T/C was 93 [survivor count not shown] and 103 % of control [survivor count not shown].

Which results are given for `NC(Cc1ccccc1N(CCCl)CCCl)C(=O)O` (stereo not drawn)?
T/C (dose: 0.25 mg/kg/injection, vehicle: carboxymethylcellulose (CMC)): 95 % of control [survivor count not shown]; T/C (dose: 0.5 mg/kg/injection, vehicle: carboxymethylcellulose (CMC)): 100 [survivor count not shown], 101 [survivor count not shown], 109 % of control [survivor count not shown]; T/C (dose: 1.0 mg/kg/injection, vehicle: carboxymethylcellulose (CMC)): 98 [survivor count not shown], 110 [survivor count not shown], 132 % of control [survivor count not shown]; T/C (dose: 2.0 mg/kg/injection, vehicle: carboxymethylcellulose (CMC)): 106 [survivor count not shown], 127 [survivor count not shown], 166 % of control [survivor count not shown]

Which results are given for `O=C(O)CN(CCCl)CCCl`?
T/C (dose: 0.5 mg/kg/injection, vehicle: saline): 94 % of control [survivor count not shown]; T/C (dose: 1.0 mg/kg/injection, vehicle: saline): 96 % of control [survivor count not shown]; T/C (dose: 2.0 mg/kg/injection, vehicle: saline): 91 % of control [survivor count not shown]; T/C (dose: 4.0 mg/kg/injection, vehicle: saline): 94 % of control [survivor count not shown]
